Source: patent publication US20030162221A1
Results are given in words; binding and its absence hold for the method and conditions named. In cells and extracts the contact can be indirect. Some binding calls cover weakened binding; strength is not graded here. Sequences can lack the tags named with a protein.

What was measured:
[1] = molecular target: T1, Rad1 (Saccharomyces cerevisiae) (UniProt P06777); assay: anti-FLAG co-IP, LC-MS/MS
T1 sequence (looked up): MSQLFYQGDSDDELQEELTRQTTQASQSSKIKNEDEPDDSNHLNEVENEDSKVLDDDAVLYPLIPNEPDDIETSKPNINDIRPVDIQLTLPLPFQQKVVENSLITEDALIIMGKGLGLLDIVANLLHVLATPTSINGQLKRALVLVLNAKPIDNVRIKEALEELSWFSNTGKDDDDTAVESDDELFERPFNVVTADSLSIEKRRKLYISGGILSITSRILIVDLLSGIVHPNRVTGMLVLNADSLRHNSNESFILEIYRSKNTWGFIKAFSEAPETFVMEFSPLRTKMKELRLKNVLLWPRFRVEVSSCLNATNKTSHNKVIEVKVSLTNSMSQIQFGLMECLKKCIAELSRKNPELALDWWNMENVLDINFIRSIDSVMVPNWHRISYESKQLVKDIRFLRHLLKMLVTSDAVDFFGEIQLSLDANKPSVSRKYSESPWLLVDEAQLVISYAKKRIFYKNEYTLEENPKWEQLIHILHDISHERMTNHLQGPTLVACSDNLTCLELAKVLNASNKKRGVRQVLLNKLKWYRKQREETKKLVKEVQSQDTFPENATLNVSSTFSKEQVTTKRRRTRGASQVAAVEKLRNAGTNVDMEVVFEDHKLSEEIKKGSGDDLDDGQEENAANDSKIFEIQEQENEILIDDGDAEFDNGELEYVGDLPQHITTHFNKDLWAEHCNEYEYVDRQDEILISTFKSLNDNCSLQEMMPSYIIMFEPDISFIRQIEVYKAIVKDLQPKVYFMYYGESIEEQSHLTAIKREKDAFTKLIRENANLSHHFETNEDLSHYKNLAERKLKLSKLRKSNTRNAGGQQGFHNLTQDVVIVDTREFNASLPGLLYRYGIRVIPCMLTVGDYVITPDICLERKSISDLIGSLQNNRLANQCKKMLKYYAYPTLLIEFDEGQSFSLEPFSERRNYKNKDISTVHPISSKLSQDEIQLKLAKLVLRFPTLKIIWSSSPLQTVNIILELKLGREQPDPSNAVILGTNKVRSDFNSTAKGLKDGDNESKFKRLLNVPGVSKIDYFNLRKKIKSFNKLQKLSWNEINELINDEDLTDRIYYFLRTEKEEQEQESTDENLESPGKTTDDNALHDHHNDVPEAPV

[2] = molecular target: T2, Rad4 (Saccharomyces cerevisiae) (UniProt P14736); assay: anti-FLAG co-IP, LC-MS/MS
T2 sequence (looked up): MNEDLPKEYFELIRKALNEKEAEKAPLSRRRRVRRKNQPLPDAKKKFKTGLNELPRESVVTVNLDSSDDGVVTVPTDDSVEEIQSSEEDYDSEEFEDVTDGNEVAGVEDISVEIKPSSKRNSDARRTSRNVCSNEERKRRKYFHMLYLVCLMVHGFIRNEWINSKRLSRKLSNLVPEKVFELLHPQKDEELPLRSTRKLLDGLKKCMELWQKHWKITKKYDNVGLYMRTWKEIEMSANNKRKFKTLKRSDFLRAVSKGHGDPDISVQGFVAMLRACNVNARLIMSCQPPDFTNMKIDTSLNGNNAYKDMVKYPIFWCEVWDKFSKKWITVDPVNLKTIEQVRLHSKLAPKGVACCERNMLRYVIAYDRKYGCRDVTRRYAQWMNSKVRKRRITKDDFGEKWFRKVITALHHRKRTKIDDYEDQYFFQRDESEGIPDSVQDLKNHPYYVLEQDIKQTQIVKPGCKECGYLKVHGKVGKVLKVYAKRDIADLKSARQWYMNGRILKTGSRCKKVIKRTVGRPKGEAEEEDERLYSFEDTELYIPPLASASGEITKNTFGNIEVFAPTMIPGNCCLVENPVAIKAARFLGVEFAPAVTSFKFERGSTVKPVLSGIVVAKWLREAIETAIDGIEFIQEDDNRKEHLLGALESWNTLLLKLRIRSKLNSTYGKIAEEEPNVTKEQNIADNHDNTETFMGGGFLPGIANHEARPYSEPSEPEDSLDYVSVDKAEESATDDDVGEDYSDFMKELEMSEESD

[3] = molecular target: T1, Rad1 (Saccharomyces cerevisiae); assay: anti-FLAG co-IP, LC-MS/MS; pair by Table 2
[4] = molecular target: T2, Rad4 (Saccharomyces cerevisiae); assay: anti-FLAG co-IP, LC-MS/MS; bait Rad14 by Table 2
[5] = molecular target: T3, Rad7 (Saccharomyces cerevisiae) (UniProt P06779); assay: anti-FLAG co-IP, LC-MS/MS
T3 sequence (looked up): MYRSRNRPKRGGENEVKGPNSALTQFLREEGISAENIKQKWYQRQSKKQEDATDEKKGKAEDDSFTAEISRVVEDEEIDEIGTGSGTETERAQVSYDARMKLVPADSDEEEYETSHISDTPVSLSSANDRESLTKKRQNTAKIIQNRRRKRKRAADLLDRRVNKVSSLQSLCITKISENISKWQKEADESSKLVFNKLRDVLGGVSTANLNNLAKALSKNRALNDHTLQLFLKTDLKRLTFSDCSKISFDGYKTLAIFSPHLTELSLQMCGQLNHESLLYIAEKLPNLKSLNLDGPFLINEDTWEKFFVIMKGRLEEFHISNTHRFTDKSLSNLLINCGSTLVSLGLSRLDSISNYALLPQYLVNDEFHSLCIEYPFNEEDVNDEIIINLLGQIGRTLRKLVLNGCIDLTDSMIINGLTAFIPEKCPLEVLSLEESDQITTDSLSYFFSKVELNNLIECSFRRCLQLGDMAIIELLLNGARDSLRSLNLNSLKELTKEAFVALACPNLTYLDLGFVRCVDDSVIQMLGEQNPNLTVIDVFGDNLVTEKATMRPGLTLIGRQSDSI

[6] = molecular target: T3, Rad7 (Saccharomyces cerevisiae); assay: anti-FLAG co-IP, LC-MS/MS; pair by Table 2

Measured: binding

B1: Rad14 (protein, Saccharomyces cerevisiae, UniProt P28519 1-371, looked up)
chain: MTPEQKAKLEANRKLAIERLRKRGILSSDQLNRIESRNEPLKTRPLAVTSGSNRDDNAAAAVHVPNHNGQPSALANTNTNTTSLYGSGVVDGSKRDASVLDKRPTDRIRPSIRKQDYIEYDFATMQNLNGGYINPKDKLPNSDFTDDQEFESEFGSKKQKTLQDWKKEQLERKMLYENAPPPEHISKAPKCIECHINIEMDPVLHDVFKLQVCKQCSKEHPEKYALLTKTECKEDYFLTDPELNDEDLFHRLEKPNPHSGTFARMQLFVRCEVEAFAFKKWGGEEGLDEEWQRREEGKAHRREKKYEKKIKEMRLKTRAQEYTNRLREKKHGKAHIHHFSDPVDGGIDEDGYQIQRRRCTDCGLETEEIDI
binds: [1] | [2] | [3] | [4]

B2: Rad16 (protein, Saccharomyces cerevisiae, UniProt P31244 1-790, looked up)
chain: MQEGGFIRRRRTRSTKKSVNYNELSDDDTAVKNSKTLQLKGNSENVNDSQDEEYRDDATLVKSPDDDDKDFIIDLTGSDKERTATDENTHAIKNDNDEIIEIKEERDVSDDDEPLTKKRKTTARKKKKKTSTKKKSPKVTPYERNTLRLYEHHPELRNVFTDLKNAPPYVPQRSKQPDGMTIKLLPFQLEGLHWLISQEESIYAGGVLADEMGMGKTIQTIALLMNDLTKSPSLVVAPTVALMQWKNEIEQHTKGQLKIYIYHGASRTTDIKDLQGYDVVLTTYAVLESVFRKQNYGFRRKNGLFKQPSVLHNIDFYRVILDEAHNIKDRQSNTARAVNNLKTQKRWCLSGTPLQNRIGEMYSLIRFLNINPFTKYFCTKCDCASKDWKFTDRMHCDHCSHVIMQHTNFFNHFMLKNIQKFGVEGPGLESFNNIQTLLKNIMLRRTKVERADDLGLPPRIVTVRRDFFNEEEKDLYRSLYTDSKRKYNSFVEEGVVLNNYANIFTLITRMRQLADHPDLVLKRLNNFPGDDIGVVICQLCNDEAEEPIESKCHHKFCRLCIKEYVESFMENNNKLTCPVCHIGLSIDLSQPALEVDLDSFKKQSIVSRLNMSGKWQSSTKIEALVEELYKLRSNKRTIKSIVFSQFTSMLDLVEWRLKRAGFQTVKLQGSMSPTQRDETIKYFMNNIQCEVFLVSLKAGGVALNLCEASQVFILDPWWNPSVEWQSGDRVHRIGQYRPVKITRFCIEDSIEARIIELQEKKANMIHATINQDEAAISRLTPADLQFLFNN
binds: [5] | [6]
